From PubChem BioAssay AID294 (DTP/NCI, 2004)
The list shows only some results of the screen, not a fair sample: it covers a few groups of compounds. Other doses and runs of a compound may be missing. T/C gives the treated animals as a percentage of the vehicle group. Schedule codes are those of the source, taken here to give the interval after Q, in days (D) or hours (H), and the number of doses after X. Some T/C values are followed by the survivors on the day toxicity was checked; where neither a count nor a note follows, no animal had died by that day. Some entries give survivors of the animals treated and no T/C: the source holds a T/C of zero for them, seemingly a mark for toxic or unscored doses. Counts of survivors are from the toxicity check, whose day is not always given; animals may have died later.

Tested on: MX-1 breast xenograft, nude mice, tumor weight change
Test: NCI In Vivo Anticancer Drug Screen. Data for tumor model Human Mammary Carcinoma MX-1 Xenograft (subcutaneous) in NU/NU Swiss (nude) mice
Conditions: T/C endpoint: optimum tumor weight change, schedule: Q04DX003 (ip), higher T/C = larger tumour
Protocol: The antitumor activity of compounds was measured in mice bearing transplantable tumors. Survival or tumor size were measured and the results are expressed as the measurement made in the treated group (T) divided by the measurement made in the vehicle treated control group (C). The tumor model used in this assay is Human Mammary Carcinoma MX-1 Xenograft (subcutaneous) in NU/NU Swiss (nude) mice

SMILES	T/C (dose: 12.5 mg/kg/injection, vehicle: suspension in saline, evaluated on day 40)	T/C (dose: 25.0 mg/kg/injection, vehicle: suspension in saline, evaluated on day 40)	T/C (dose: 50.0 mg/kg/injection, vehicle: suspension in saline, evaluated on day 40)	T/C (dose: 100.0 mg/kg/injection, vehicle: suspension in saline, evaluated on day 40)	survivor count (dose: 200.0 mg/kg/injection, vehicle: suspension in saline)	survivor count (dose: 400.0 mg/kg/injection, vehicle: suspension in saline)	survivor count (dose: 800.0 mg/kg/injection, vehicle: suspension in saline)	survivor count (dose: 1600.0 mg/kg/injection, vehicle: suspension in saline)	T/C (dose: 3.0 mg/kg/injection, vehicle: saline, evaluated on day 37)	T/C (dose: 6.0 mg/kg/injection, vehicle: saline, evaluated on day 37)	survivor count (dose: 12.0 mg/kg/injection, vehicle: saline)
CC1(C)CN1P(=O)(Nc1ncccn1)N1CC1(C)C (stereo unspecified)	72 % of control	78 % of control	73 % of control	69 % of control [4 of 5 alive on day 42]	2 of 5 on day 41	1 of 5 on day 41	0 of 5 on day 41	0 of 5 on day 41			
C[As](C)SC1OC(CO)C(O)C(O)C1O (stereo unspecified)									79 % of control [4 of 5 alive on day 37]	59 % of control	3 of 5 on day 37
